Laboratory results as given in article PMC12040169 (PLOS Biology, 2025).
The list shows a part of the results.

test system: T1, CTL2-GFP (C. trachomatis L2/434/Bu, GFP-expressing); set-up: species or system HeLa; Intracellular C. trachomatis growth in HeLa cells, bulk GFP fluorescence relative to DMSO; conditions: bulk GFP, single well; 28.5 h, 10 µM; inhibitor
T1 construct: L2/434/Bu, GFP-expressing

In order of rising “% of control remaining” value:
1. Cn1cncc1C(=O)NCc1ccccc1 [CBK200199]  45.9719%
2. O=C(CSc1nc2ccccc2o1)N1c2ccccc2Sc2ccc(C(F)(F)F)cc21 [CBK018044]  73.9077%
3. O=C(Nc1ccc(F)cc1)N1C2CCC1CC(O)(c1cccnc1)C2 (stereo not shown) [CBK281946]  75.85%
4. CC1CCN(CC(=O)Nc2sc3c(c2C(=O)NCc2ccccc2)CCCC3)CC1 [CBK268387]  77.3073%
5. COc1ccc(F)c(CN(CC2CCNCC2)C(=O)Nc2c(C)noc2C)c1 [CBK049811]  80.9977%
6. COc1cc(CNc2ccc(N3CCOCC3)cc2)ccc1OCc1ccc(Cl)cc1Cl [CBK074516]  85.6895%
7. c1ccc(C(=NCCN=C(c2ccccc2)c2ccccc2)c2ccccc2)cc1 [CBK262065]  90.85%
8. C/N=C1/SC(CC(=O)Nc2cccc(C(=O)O)c2)C(=O)N1C (stereo not shown) [CBK265581]  100%
9. Cc1n[nH]c(C)c1CCC(=O)N/N=C/c1ccncc1 [CBK262888]  100%
10. COC(=O)c1c(C(C)(C)C)c(O)c2ccoc2c1OC [CBK007577]  100%
11. CC(C)CNc1n[nH]c(=S)s1 [CBK016865]  103.688%
12. Cc1cccc(N2NC(=O)/C(=C/c3cccn3-c3ccc(S(N)(=O)=O)cc3)C2=O)c1 [CBK265660]  104.428%
13. Cc1c(S(=O)(=O)N2CCN(C3CCN(C)CC3)CC2)sc2ccc(C(C)C)cc12 [CBK170352]  105.234%
14. Cc1ccc(NC(=O)N2CCCC(CO)C2)cc1 (stereo not shown) [CBK156065]  105.473%
15. O=C1CCC(=O)N1Cc1cccc(-c2ccnc(NS(=O)(=O)c3ccc(Cl)cc3)n2)c1 [CBK067436]  106.614%
16. COC1CCN(C(=O)OCCc2cccnc2)CC1 [CBK200161]  107.815%
17. CC(C)c1cc(C(=O)N(C)Cc2cccc3ncccc23)n(C)n1 [CBK282567]  108.026%
18. Cn1ccnc1CN(Cc1ccccc1)C1CC(C)(C)NC(C)(C)C1 [CBK283177]  109.098%
19. COc1ccc(Sc2nccnc2NC(C)C)cc1OC [CBK115249]  110.703%
20. O=C(/C=C/c1ccco1)Nc1sc2c(c1C(=O)O)CCC2 [CBK263181]  114.751%
21. CC(Oc1ccc(Cl)cc1Cl)C(=O)NC1CC(C)(C)NC(C)(C)C1 (stereo not shown) [CBK263951C]  115.11%
22. CC(=O)NCc1cccc(-c2cc(C(=O)Nc3ccc4c(c3)OCCO4)cnc2-c2cccnc2)c1 [CBK160658]  117.837%
23. COc1ccc(-c2oc3ncn4nc(COc5ccccc5C)nc4c3c2-c2ccc(OC)cc2)cc1 [CBK265283]  118.092%
24. C/C(=C1/SC(=S)N(c2cccc(C(=O)O)c2)C1=O)c1cccc([N+](=O)[O-])c1 [CBK265168]  119.678%
25. Nc1ncc(CN(Cc2ccco2)CC(O)Cn2c3ccccc3c3ccccc32)cn1 (stereo not shown) [CBK286462]  121.346%
26. Cc1cc(C)c(C)c(S(=O)(=O)N2CCN(c3ncnc4sc(C)c(C)c34)CC2)c1C [CBK265297]  121.55%
27. Cc1nc(C2CCCN2C(=O)CC2CCCC2)nc2c1CCCN2Cc1ccccn1 (stereo not shown) [CBK286252]  122.131%
28. COc1ccc(Cl)cc1N1CCN(CCCn2c(=O)[nH]c3ccccc32)CC1 [CBK138338]  125.222%
29. O=C(C1CCCN(c2ccc3nncn3n2)C1)N1CCOCC1 (stereo not shown) [CBK287901]  126.094%
30. O=C(CCn1c(-c2cccnc2)cc2cccnc21)NC1CCCCC1 [CBK282647]  126.898%
31. CCc1cc2c(NC(CCSC)C(=O)O)nc(C)nc2s1 (stereo not shown) [CBK266709]  130.816%
32. CC(Cc1cccs1)NC(=O)CSCc1ccco1 (stereo not shown) [CBK283238]  132.369%
33. COc1ccc(S(=O)(=O)N2CCC3(CC2)CC(=O)c2ccc(C)cc2O3)cc1OC [CBK166515]  135.079%
34. CC(C)c1nc(NCCc2nnc3n2CCC3)nc(N(C)C)n1 [CBK306409]  135.623%
35. Fc1cnc(Nc2ccccc2)nc1N1CCOCC1 [CBK287279]  138.354%
36. O=C(Nc1nnc(C2=COCCO2)o1)c1ccc(-c2ccccc2)cc1 [CBK287407]  146.777%
37. O=C(CC1CCCC1)N1CCC(c2nnc3n2CCCCC3)CC1 [CBK284630]  149.471%
38. Cn1cc(-c2ncc(OCCc3cccs3)nc2N)cn1 [CBK145167]  152.166%
39. CNC(=O)c1ccc(-c2cccc(OC(F)(F)F)c2)nc1NCCOC [CBK106000]  152.854%
40. CCCC/C=C/c1cncc(NC(C)CCCC(C)(C)O)n1 (stereo not shown) [CBK065505]  182.487%
